From the supplement of paper PMC12823440, “Inhibitors supercharge kinase turnover through native proteolytic circuits” (Nature, 2025)
Counter-ions that a name gives are not always drawn. This is one part of the list. Hit calls seldom repeat between salt and free forms of one compound.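 Kinases, fused to nanoluciferase, were expressed in K562 cells; luminescence was measured every 4 h from 2 to 18 h as percent of control (DMSO = 100%, positive control = 0%). A time point is decreased if signal falls significantly (2 sigma). Hits were called by the authors by a rule that is not shown; the count of time points alone does not decide it.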

The chains behind the UniProt entries cited, without tags or fusion partners. Where a name states a change or a piece, a line headed by the entry shows the natural chain unless it says otherwise.
UniProt O15530: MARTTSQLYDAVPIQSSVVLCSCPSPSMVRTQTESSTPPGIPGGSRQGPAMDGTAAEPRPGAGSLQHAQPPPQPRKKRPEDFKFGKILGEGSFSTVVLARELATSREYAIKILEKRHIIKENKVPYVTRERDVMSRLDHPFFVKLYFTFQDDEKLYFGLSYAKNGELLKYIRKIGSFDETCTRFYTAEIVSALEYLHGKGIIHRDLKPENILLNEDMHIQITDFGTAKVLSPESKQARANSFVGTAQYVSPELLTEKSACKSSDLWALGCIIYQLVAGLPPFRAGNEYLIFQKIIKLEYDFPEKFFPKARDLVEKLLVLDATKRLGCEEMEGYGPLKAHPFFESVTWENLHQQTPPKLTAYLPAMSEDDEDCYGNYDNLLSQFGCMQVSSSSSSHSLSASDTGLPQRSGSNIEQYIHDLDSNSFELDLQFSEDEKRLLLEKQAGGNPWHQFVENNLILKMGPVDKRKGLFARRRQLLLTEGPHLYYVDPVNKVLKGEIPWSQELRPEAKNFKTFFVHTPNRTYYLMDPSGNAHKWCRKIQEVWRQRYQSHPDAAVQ
UniProt Q14289, whole entry, looked up: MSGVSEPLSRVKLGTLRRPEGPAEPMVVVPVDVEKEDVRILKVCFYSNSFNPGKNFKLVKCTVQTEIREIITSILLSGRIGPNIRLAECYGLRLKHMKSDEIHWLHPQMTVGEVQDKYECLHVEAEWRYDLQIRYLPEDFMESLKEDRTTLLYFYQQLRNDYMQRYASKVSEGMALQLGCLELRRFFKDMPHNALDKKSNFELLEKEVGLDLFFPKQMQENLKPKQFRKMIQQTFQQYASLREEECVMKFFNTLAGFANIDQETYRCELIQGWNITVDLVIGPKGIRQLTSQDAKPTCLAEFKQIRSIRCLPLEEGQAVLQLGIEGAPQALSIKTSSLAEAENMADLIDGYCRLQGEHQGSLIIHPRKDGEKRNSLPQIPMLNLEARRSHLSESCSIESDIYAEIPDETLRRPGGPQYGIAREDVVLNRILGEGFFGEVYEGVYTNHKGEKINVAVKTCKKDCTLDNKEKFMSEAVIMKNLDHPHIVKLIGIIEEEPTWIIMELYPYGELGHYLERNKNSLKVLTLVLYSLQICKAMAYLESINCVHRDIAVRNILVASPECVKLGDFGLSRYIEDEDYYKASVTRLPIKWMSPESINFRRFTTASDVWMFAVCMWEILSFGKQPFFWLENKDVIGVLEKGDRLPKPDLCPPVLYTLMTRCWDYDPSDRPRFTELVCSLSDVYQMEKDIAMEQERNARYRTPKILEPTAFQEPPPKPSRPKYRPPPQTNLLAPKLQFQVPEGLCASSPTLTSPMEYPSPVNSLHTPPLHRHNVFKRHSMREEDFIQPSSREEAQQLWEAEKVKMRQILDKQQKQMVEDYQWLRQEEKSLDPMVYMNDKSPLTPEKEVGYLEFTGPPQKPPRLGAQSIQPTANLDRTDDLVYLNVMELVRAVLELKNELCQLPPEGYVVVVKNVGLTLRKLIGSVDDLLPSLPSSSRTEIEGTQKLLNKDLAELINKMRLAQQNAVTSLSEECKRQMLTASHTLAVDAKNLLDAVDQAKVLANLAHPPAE
UniProt P07949, whole entry, looked up: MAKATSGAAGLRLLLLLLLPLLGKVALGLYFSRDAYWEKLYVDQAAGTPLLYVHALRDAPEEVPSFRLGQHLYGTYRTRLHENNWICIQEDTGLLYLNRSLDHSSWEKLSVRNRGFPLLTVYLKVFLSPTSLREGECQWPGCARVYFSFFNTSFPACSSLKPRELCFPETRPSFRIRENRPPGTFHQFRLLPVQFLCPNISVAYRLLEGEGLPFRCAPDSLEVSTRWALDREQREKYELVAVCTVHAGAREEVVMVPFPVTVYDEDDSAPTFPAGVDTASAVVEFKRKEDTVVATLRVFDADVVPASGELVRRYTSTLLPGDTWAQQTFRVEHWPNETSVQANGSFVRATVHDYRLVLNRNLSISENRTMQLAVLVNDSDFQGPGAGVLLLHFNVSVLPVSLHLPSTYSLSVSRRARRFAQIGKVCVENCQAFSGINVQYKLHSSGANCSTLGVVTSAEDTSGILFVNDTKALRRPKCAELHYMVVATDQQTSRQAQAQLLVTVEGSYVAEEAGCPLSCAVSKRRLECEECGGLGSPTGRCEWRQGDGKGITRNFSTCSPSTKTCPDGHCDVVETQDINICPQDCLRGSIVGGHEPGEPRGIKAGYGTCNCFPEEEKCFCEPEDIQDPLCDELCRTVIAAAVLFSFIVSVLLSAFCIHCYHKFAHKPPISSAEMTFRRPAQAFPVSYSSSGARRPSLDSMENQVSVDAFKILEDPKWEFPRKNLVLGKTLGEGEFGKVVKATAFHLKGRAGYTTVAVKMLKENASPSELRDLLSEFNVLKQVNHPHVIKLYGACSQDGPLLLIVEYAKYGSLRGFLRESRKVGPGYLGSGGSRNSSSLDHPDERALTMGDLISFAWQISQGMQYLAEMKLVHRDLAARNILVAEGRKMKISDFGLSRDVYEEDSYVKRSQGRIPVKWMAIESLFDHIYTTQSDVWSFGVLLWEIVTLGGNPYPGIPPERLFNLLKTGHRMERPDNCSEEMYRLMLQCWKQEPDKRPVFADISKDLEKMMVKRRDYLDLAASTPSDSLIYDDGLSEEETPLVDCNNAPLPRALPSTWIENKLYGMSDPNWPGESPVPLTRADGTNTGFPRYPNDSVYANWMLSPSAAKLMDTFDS
UniProt P07949, whole entry M918T, looked up: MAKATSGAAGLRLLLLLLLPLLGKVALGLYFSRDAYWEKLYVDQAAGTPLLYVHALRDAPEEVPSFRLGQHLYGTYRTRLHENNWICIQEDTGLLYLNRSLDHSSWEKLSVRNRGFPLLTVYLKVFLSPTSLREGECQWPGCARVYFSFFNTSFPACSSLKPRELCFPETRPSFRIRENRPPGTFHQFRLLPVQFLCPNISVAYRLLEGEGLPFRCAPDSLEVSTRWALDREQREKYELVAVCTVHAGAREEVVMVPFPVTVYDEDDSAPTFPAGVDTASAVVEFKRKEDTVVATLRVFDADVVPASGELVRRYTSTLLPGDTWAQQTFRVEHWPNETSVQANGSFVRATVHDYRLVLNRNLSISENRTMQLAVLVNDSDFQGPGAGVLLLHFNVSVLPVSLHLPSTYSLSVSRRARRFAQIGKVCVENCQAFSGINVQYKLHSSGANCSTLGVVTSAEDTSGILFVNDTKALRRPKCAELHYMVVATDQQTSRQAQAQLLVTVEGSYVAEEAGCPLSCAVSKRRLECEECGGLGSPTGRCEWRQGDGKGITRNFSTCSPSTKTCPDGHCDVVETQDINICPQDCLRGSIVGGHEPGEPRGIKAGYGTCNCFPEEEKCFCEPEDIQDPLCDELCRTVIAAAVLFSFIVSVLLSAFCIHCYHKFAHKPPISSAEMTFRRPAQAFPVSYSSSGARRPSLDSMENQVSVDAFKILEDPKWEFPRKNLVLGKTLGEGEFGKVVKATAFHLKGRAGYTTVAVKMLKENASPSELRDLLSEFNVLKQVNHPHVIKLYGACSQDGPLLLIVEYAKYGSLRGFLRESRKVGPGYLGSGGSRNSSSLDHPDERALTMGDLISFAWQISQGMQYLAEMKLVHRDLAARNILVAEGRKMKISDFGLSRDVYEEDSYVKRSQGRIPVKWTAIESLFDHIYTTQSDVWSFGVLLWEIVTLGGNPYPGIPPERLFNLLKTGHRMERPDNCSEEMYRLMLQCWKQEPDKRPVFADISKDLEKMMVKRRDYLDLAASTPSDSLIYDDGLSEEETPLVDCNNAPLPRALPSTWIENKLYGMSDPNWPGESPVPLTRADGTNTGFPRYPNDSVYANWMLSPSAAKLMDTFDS
UniProt Q13546: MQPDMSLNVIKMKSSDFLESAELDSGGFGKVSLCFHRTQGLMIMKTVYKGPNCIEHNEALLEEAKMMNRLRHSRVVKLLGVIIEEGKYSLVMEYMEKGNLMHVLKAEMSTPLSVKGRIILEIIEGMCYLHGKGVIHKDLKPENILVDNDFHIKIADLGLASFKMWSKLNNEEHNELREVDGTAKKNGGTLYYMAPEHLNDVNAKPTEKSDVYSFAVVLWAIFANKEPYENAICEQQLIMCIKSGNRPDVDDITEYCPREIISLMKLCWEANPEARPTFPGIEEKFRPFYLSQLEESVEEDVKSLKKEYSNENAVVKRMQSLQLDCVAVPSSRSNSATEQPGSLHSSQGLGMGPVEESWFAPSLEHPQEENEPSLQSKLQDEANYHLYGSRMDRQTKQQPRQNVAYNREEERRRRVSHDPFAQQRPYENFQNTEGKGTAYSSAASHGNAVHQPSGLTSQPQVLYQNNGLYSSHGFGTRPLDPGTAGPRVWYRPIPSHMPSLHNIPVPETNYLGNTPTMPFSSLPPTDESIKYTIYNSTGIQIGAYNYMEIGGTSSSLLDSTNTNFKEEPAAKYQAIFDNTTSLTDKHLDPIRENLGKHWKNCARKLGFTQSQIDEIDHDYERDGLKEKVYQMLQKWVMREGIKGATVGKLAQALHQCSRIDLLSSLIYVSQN
UniProt Q15418, whole entry: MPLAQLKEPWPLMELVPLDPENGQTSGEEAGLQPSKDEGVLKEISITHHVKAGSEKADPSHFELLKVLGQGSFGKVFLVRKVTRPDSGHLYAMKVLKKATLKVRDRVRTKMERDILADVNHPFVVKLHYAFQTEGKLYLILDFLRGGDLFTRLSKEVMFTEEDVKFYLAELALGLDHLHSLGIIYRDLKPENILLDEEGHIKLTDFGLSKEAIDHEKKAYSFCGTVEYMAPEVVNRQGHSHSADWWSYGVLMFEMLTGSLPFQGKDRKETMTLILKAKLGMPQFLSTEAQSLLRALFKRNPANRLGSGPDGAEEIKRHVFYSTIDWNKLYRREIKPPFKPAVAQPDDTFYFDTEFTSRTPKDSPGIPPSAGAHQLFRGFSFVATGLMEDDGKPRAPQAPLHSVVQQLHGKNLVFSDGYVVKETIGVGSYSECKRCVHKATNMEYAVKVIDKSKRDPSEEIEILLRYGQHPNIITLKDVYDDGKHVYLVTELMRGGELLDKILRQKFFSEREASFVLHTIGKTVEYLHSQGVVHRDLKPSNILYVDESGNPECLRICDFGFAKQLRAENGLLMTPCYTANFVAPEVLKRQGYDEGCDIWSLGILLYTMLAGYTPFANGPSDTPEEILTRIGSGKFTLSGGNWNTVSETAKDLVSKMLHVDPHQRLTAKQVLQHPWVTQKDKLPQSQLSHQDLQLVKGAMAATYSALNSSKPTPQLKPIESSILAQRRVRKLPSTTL
UniProt Q9Y6E0: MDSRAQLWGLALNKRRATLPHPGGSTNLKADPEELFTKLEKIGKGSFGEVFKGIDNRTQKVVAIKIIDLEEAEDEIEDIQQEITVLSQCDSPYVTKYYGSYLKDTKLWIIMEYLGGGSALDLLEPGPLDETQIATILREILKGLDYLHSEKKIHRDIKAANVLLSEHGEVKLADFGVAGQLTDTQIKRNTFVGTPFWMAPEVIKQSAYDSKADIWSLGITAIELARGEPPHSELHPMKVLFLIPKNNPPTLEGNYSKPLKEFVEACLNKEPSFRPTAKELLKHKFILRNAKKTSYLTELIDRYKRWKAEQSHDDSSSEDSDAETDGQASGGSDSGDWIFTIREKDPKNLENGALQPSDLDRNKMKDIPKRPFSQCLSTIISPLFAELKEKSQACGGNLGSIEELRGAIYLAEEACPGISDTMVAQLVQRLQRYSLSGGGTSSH

Tests used:
Experiment in all cases: kinase-Nluc reporter destabilization hit call (1 = scored as downregulated) (binary); higher = compound decreases kinase abundance
Details in all cases: K562; 2-18 h
PDPK1 = PDPK1 (UniProt O15530)
PIK4CA = PIK4CA (UniProt P42356)
PIK4CB = PIK4CB (UniProt Q9UBF8)
PLK1 = PLK1 (UniProt P53350)
PRKAA1 = PRKAA1 (UniProt Q13131)
PRKCA = PRKCA (UniProt P17252)
PTK2 = PTK2 (UniProt Q05397)
PTK2B = PTK2B (UniProt Q14289)
RAF1 = RAF1 (UniProt P04049)
[1] = molecular target: RAF1_S257L (clone: RAF1_mut) (UniProt P04049)
RET = RET (UniProt P07949)
[2] = molecular target: RET_M918T (clone: RET_mut) (UniProt P07949)
RIOK1 = RIOK1 (UniProt Q9BRS2)
RIPK1 = RIPK1 (UniProt Q13546)
RIPK2 = RIPK2 (UniProt O43353)
ROR2 = ROR2 (UniProt Q01974)
RPS6KA1 = RPS6KA1 (UniProt Q15418)
SPHK1 = SPHK1 (UniProt Q9NYA1)
SRC = SRC (UniProt P12931)
STK24 = STK24 (UniProt Q9Y6E0)

SMILES	kinase-Nluc reporter destabilization hit call (PDPK1)	kinase-Nluc reporter destabilization hit call (PIK4CA)	kinase-Nluc reporter destabilization hit call (PIK4CB)	kinase-Nluc reporter destabilization hit call (PLK1)	kinase-Nluc reporter destabilization hit call (PRKAA1)	kinase-Nluc reporter destabilization hit call (PRKCA)	kinase-Nluc reporter destabilization hit call (PTK2)	kinase-Nluc reporter destabilization hit call (PTK2B)	kinase-Nluc reporter destabilization hit call (RAF1)	kinase-Nluc reporter destabilization hit call [1]	kinase-Nluc reporter destabilization hit call (RET)	kinase-Nluc reporter destabilization hit call [2]	kinase-Nluc reporter destabilization hit call (RIOK1)	kinase-Nluc reporter destabilization hit call (RIPK1)	kinase-Nluc reporter destabilization hit call (RIPK2)	kinase-Nluc reporter destabilization hit call (ROR2)	kinase-Nluc reporter destabilization hit call (RPS6KA1)	kinase-Nluc reporter destabilization hit call (SPHK1)	kinase-Nluc reporter destabilization hit call (SRC)	kinase-Nluc reporter destabilization hit call (STK24)
COc1ccccc1-c1cc(Nc2cccc(CS(N)(=O)=O)c2)ncn1 (10 µM)	inactive: 0	inactive: 0	inactive: 0	inactive: 0	inactive: 0	inactive: 0	inactive: 0	inactive: 0	inactive: 0	inactive: 0	inactive: 0	inactive: 0	inactive: 0	inactive: 0	inactive: 0	inactive: 0	inactive: 0	inactive: 0	inactive: 0	inactive: 0
O=c1[nH]c(=O)n([C@@H]2O[C@H](CO)[C@@H](O)[C@@H]2O)cc1/C=C/Br [Sorivudine] (10 µM)	inactive: 0	inactive: 0	inactive: 0	inactive: 0	inactive: 0	inactive: 0	inactive: 0	inactive: 0	inactive: 0	inactive: 0	inactive: 0	inactive: 0	inactive: 0	inactive: 0	inactive: 0	inactive: 0	inactive: 0	inactive: 0	inactive: 0	inactive: 0
c1cncc(CN2CCC(n3ncc4c(N5CCOCC5)nc(-c5ccc6[nH]ccc6c5)nc43)CC2)c1 (10 µM)	inactive: 0	inactive: 0	inactive: 0	inactive: 0	inactive: 0	inactive: 0	inactive: 0	inactive: 0	inactive: 0	inactive: 0	inactive: 0	inactive: 0	inactive: 0	inactive: 0	inactive: 0	inactive: 0	inactive: 0	inactive: 0	inactive: 0	inactive: 0
COc1cc2c(N3CCN(C(=O)Nc4ccc(OC(C)C)cc4)CC3)ncnc2cc1OCCCN1CCCCC1 [Tandutinib] (10 µM)	inactive: 0	inactive: 0	inactive: 0	inactive: 0	inactive: 0	inactive: 0	inactive: 0	inactive: 0	inactive: 0	inactive: 0	inactive: 0	inactive: 0	inactive: 0	inactive: 0	inactive: 0	inactive: 0	inactive: 0	inactive: 0	inactive: 0	inactive: 0
COc1cccc(OC)c1C(=O)OCc1cc(O)ccc1O[C@@H]1O[C@H](CO)[C@@H](O)[C@H](O)[C@H]1O [Curculigoside] (10 µM)	inactive: 0	inactive: 0	inactive: 0	inactive: 0	inactive: 0	inactive: 0	inactive: 0	inactive: 0	inactive: 0	inactive: 0	inactive: 0	inactive: 0	inactive: 0	inactive: 0	inactive: 0	inactive: 0	inactive: 0	inactive: 0	inactive: 0	inactive: 0
Nc1nc(F)nc2c1ncn2[C@@H]1O[C@H](CO)[C@@H](O)[C@@H]1O [Fludarabine] (10 µM)	inactive: 0	inactive: 0	inactive: 0	inactive: 0	inactive: 0	inactive: 0	inactive: 0	inactive: 0	inactive: 0	inactive: 0	inactive: 0	inactive: 0	inactive: 0	inactive: 0	inactive: 0	inactive: 0	inactive: 0	inactive: 0	inactive: 0	inactive: 0
Nc1cc(C(F)(F)F)c(-c2cc(N3CCOCC3)nc(N3CCOCC3)n2)cn1 [Buparlisib (Hydrochloride)] (2.5 µM)	inactive: 0	inactive: 0	inactive: 0	inactive: 0	inactive: 0	inactive: 0	inactive: 0	inactive: 0	inactive: 0	inactive: 0	inactive: 0	inactive: 0	inactive: 0	inactive: 0	inactive: 0	inactive: 0	inactive: 0	inactive: 0	inactive: 0	inactive: 0
CC1=C(C(=O)O)N2C(=O)[C@@H](NC(=O)[C@H](N)C3=CCC=CC3)[C@H]2SC1 [Cephradine] (10 µM)	inactive: 0	inactive: 0	inactive: 0	inactive: 0	inactive: 0	inactive: 0	inactive: 0	inactive: 0	inactive: 0	inactive: 0	inactive: 0	inactive: 0	inactive: 0	inactive: 0	inactive: 0	inactive: 0	inactive: 0	inactive: 0	inactive: 0	inactive: 0
Cn1nccc1Nc1nccc(-c2ccn([C@H](CO)c3ccc(Cl)c(F)c3)c(=O)c2)n1 [Ravoxertinib hydrochloride] (10 µM)	inactive: 0	inactive: 0	inactive: 0	inactive: 0	inactive: 0	inactive: 0	inactive: 0	inactive: 0	inactive: 0	inactive: 0	inactive: 0	inactive: 0	inactive: 0	inactive: 0	inactive: 0	inactive: 0	inactive: 0	inactive: 0	inactive: 0	inactive: 0
COc1cc2nccc(Oc3ccc(NC(=O)NC4CC4)c(Cl)c3)c2cc1C(N)=O [Lenvatinib (mesylate)] (10 µM)	inactive: 0	inactive: 0	inactive: 0	inactive: 0	inactive: 0	inactive: 0	inactive: 0	inactive: 0	inactive: 0	inactive: 0	inactive: 0	inactive: 0	inactive: 0	inactive: 0	inactive: 0	inactive: 0	inactive: 0	inactive: 0	inactive: 0	inactive: 0
Cc1ccc(OCCSc2ncccn2)c(Br)c1 [ZLN024 (hydrochloride)] (10 µM)	inactive: 0	inactive: 0	inactive: 0	inactive: 0	inactive: 0	inactive: 0	inactive: 0	inactive: 0	inactive: 0	inactive: 0	inactive: 0	inactive: 0	inactive: 0	inactive: 0	inactive: 0	inactive: 0	inactive: 0	inactive: 0	inactive: 0	inactive: 0
O=S(=O)(NCCCN1c2ccccc2CCc2ccc(Cl)cc21)c1ccc(OC(F)(F)F)cc1 (2.5 µM)	inactive: 0	inactive: 0	inactive: 0	inactive: 0	inactive: 0	inactive: 0	inactive: 0	inactive: 0	inactive: 0	inactive: 0	inactive: 0	inactive: 0	inactive: 0	inactive: 0	inactive: 0	inactive: 0	inactive: 0	inactive: 0	inactive: 0	inactive: 0
CNC(=O)c1ccc(C)c(-n2c(C)cc(OCc3ccc(F)cc3F)c(Br)c2=O)c1 (10 µM)	inactive: 0	inactive: 0	inactive: 0	inactive: 0	inactive: 0	inactive: 0	inactive: 0	inactive: 0	inactive: 0	inactive: 0	inactive: 0	inactive: 0	inactive: 0	inactive: 0	inactive: 0	inactive: 0	inactive: 0	inactive: 0	inactive: 0	inactive: 0
Cc1cc2ncc(-c3ccc(O)c(O)c3)nc2cc1C [Tyrphostin AG1433] (10 µM)	inactive: 0	inactive: 0	inactive: 0	inactive: 0	inactive: 0	inactive: 0	inactive: 0	inactive: 0	inactive: 0	inactive: 0	inactive: 0	inactive: 0	inactive: 0	inactive: 0	active: 1	inactive: 0	inactive: 0	inactive: 0	inactive: 0	inactive: 0
O=C(N/N=C/c1coc2ccccc2c1=O)c1cccnc1 (10 µM)	inactive: 0	inactive: 0	inactive: 0	inactive: 0	inactive: 0	inactive: 0	inactive: 0	inactive: 0	inactive: 0	inactive: 0	inactive: 0	inactive: 0	inactive: 0	inactive: 0	inactive: 0	inactive: 0	inactive: 0	inactive: 0	inactive: 0	inactive: 0
C=C1C(=O)O[C@H]2C[C@H](C)C(/C=C/C(C)=O)=CC[C@H]12 [Xanthatin] (2.5 µM)	inactive: 0	inactive: 0	inactive: 0	inactive: 0	inactive: 0	inactive: 0	inactive: 0	inactive: 0	inactive: 0	inactive: 0	inactive: 0	inactive: 0	inactive: 0	inactive: 0	inactive: 0	inactive: 0	inactive: 0	inactive: 0	inactive: 0	inactive: 0
Cc1cccc(Oc2cnc(=O)[nH]c2)c1 [Tolimidone] (10 µM)	inactive: 0	inactive: 0	inactive: 0	inactive: 0	inactive: 0	inactive: 0	inactive: 0	inactive: 0	inactive: 0	inactive: 0	inactive: 0	inactive: 0	inactive: 0	inactive: 0	inactive: 0	inactive: 0	inactive: 0	inactive: 0	inactive: 0	inactive: 0
O=C(Nc1cn[nH]c1-c1ccccn1)c1nn(C2CCNCC2)cc1Cl (10 µM)	inactive: 0	inactive: 0	inactive: 0	inactive: 0	inactive: 0	inactive: 0	inactive: 0	inactive: 0	inactive: 0	inactive: 0	inactive: 0	inactive: 0	inactive: 0	inactive: 0	inactive: 0	inactive: 0	inactive: 0	inactive: 0	inactive: 0	inactive: 0

A run of entries of the results above, as a working copy:
SMILES	kinase-Nluc reporter destabilization hit call (PDPK1)	kinase-Nluc reporter destabilization hit call (PIK4CA)	kinase-Nluc reporter destabilization hit call (PIK4CB)	kinase-Nluc reporter destabilization hit call (PLK1)	kinase-Nluc reporter destabilization hit call (PRKAA1)	kinase-Nluc reporter destabilization hit call (PRKCA)	kinase-Nluc reporter destabilization hit call (PTK2)	kinase-Nluc reporter destabilization hit call (PTK2B)	kinase-Nluc reporter destabilization hit call (RAF1)	kinase-Nluc reporter destabilization hit call [1]	kinase-Nluc reporter destabilization hit call (RET)	kinase-Nluc reporter destabilization hit call [2]	kinase-Nluc reporter destabilization hit call (RIOK1)	kinase-Nluc reporter destabilization hit call (RIPK1)	kinase-Nluc reporter destabilization hit call (RIPK2)	kinase-Nluc reporter destabilization hit call (ROR2)	kinase-Nluc reporter destabilization hit call (RPS6KA1)	kinase-Nluc reporter destabilization hit call (SPHK1)	kinase-Nluc reporter destabilization hit call (SRC)	kinase-Nluc reporter destabilization hit call (STK24)
COc1cccc(OC)c1C(=O)OCc1cc(O)ccc1O[C@@H]1O[C@H](CO)[C@@H](O)[C@H](O)[C@H]1O [Curculigoside] (10 µM)	inactive: 0	inactive: 0	inactive: 0	inactive: 0	inactive: 0	inactive: 0	inactive: 0	inactive: 0	inactive: 0	inactive: 0	inactive: 0	inactive: 0	inactive: 0	inactive: 0	inactive: 0	inactive: 0	inactive: 0	inactive: 0	inactive: 0	inactive: 0
Nc1nc(F)nc2c1ncn2[C@@H]1O[C@H](CO)[C@@H](O)[C@@H]1O [Fludarabine] (10 µM)	inactive: 0	inactive: 0	inactive: 0	inactive: 0	inactive: 0	inactive: 0	inactive: 0	inactive: 0	inactive: 0	inactive: 0	inactive: 0	inactive: 0	inactive: 0	inactive: 0	inactive: 0	inactive: 0	inactive: 0	inactive: 0	inactive: 0	inactive: 0
